Source: publication PMC3606321
Residue numbers refer to the chain shown, from its start. These are yes or no findings as the source states them, for the method shown. In cells and extracts the contact can be indirect. These calls come from enrichment with a bait or labelling near it, and not all partners need be listed.

Protein sequences, listed by entry. Tags and fused reporters are not part of them. Lines headed by an entry give the natural chain unless they say otherwise; changes in a name come on top. Chains listed by the source or under a name are the forms on record and can include a tag or linker.
PPP1CC2, endogenous in human sperm (P36873-2, form named): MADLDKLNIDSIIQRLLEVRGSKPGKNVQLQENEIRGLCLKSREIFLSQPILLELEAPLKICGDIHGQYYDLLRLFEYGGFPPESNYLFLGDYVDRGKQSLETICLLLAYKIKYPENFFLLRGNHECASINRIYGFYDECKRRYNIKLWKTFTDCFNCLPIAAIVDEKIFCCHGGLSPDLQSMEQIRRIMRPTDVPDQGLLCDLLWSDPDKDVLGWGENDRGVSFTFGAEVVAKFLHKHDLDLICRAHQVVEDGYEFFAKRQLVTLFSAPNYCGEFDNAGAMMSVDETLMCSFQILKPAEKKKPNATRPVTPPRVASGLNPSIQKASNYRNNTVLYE

Assays:
[1] = biological target: T1, PPP1R2, endogenous in human sperm (human (endogenous in sperm)) (UniProt P41236); test: affinity purification with mass spectrometry; immunoprecipitation with sheep or rabbit anti-PPP1R2 on Dynabeads Protein G from human ejaculated sperm extracts (RIPA; heat-stable extracts by the results), overnight 4 C; bands analysed by Orbitrap Velos MS
T1 sequence: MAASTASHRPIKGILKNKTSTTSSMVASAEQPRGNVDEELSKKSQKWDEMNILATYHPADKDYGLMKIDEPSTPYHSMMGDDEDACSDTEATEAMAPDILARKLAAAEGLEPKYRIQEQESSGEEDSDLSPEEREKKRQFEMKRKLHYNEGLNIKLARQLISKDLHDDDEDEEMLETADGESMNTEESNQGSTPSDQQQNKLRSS

[2] = biological target: T2, PPP1R2P3, endogenous in human sperm (human (endogenous in sperm)) (UniProt Q6NXS1); test: as above
T2 sequence: T1 sequence with G34R, N35S, M50I, D62G, T73P, S87R, A91T, R102K, K143R

binding [1]: binds
binding [2]: binds
Substance: PPP1CC2, endogenous in human sperm (from UniProt P36873-2 1-337) (enzyme)
